PubChem BioAssay AID1259405 – NCATS – 2018

Assay: 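Knock-downs that lift recombinant protein yield in hamster ovary cells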 (primary screen)
Cell system: Chinese hamster CHO-K1 ovary cells with stable secreted eGFP expression
Reagents: single siRNA against mouse genes, 0.8 pmol siRNA per well (2 µl of 400 nM stock)
Time to read-out: 3 days
Detection: 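Percent of the per-plate non-targeting control median for intracellular GFP per well by laser scanning cytometry and for cell viability by ATP luminescence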
Direction: GFP, % of control: higher = more GFP per well, higher productivity; viability (ATP), % of control: higher = more viable cells (more ATP)
Rule for the call: 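a knock-down is called active if GFP reaches 120% or more of non-targeting control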
Shown is one part, drawn at random, of about 50,000 reagents. About 4,000 of them (8%) were called active. 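Mouse siRNA library applied to hamster cells; one well for each siRNA.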 The numbers tell different reagents against one gene apart.

Cox6b2 (cytochrome c oxidase subunit 6B2) #1 | GFP, % of control: 163; viability (ATP), % of control: 145; Call: active
Cox6b2 (cytochrome c oxidase subunit 6B2) #2 | GFP, % of control: 160; viability (ATP), % of control: 89.1; Call: active
Cox6b2 (cytochrome c oxidase subunit 6B2) #3 | GFP, % of control: 118; viability (ATP), % of control: 79.8; Call: inactive
Cox6b2 (cytochrome c oxidase subunit 6B2) #4 | GFP, % of control: 82; viability (ATP), % of control: 83.3; Call: inactive
Cox6b2 (cytochrome c oxidase subunit 6B2) #5 | GFP, % of control: 66.8; viability (ATP), % of control: 95.6; Call: inactive
Cox6b2 (cytochrome c oxidase subunit 6B2) #6 | GFP, % of control: 125; viability (ATP), % of control: 77; Call: active
Inava (innate immunity activator) #1 | GFP, % of control: 96.5; viability (ATP), % of control: 83.2; Call: inactive
Inava (innate immunity activator) #2 | GFP, % of control: 90.9; viability (ATP), % of control: 83.7; Call: inactive
Inava (innate immunity activator) #3 | GFP, % of control: 61.5; viability (ATP), % of control: 83.6; Call: inactive
Gjb5 (gap junction protein, beta 5) #1 | GFP, % of control: 92.9; viability (ATP), % of control: 75.8; Call: inactive
Gjb5 (gap junction protein, beta 5) #2 | GFP, % of control: 114; viability (ATP), % of control: 99.1; Call: inactive
Gjb5 (gap junction protein, beta 5) #3 | GFP, % of control: 110; viability (ATP), % of control: 132; Call: inactive
Or52m1 (olfactory receptor family 52 subfamily M member 1) #1 | GFP, % of control: 137; viability (ATP), % of control: 94.5; Call: active
Or52m1 (olfactory receptor family 52 subfamily M member 1) #2 | GFP, % of control: 75.5; viability (ATP), % of control: 73.2; Call: inactive
Or52m1 (olfactory receptor family 52 subfamily M member 1) #3 | GFP, % of control: 64.5; viability (ATP), % of control: 97.6; Call: inactive
Emid1 (EMI domain containing 1) #1 | GFP, % of control: 75.4; viability (ATP), % of control: 70.7; Call: inactive
Emid1 (EMI domain containing 1) #2 | GFP, % of control: 86; viability (ATP), % of control: 61; Call: inactive
Emid1 (EMI domain containing 1) #3 | GFP, % of control: 98; viability (ATP), % of control: 63.8; Call: inactive
Trps1 (transcriptional repressor GATA binding 1) #1 | GFP, % of control: 46.6; viability (ATP), % of control: 51.4; Call: inactive
Trps1 (transcriptional repressor GATA binding 1) #2 | GFP, % of control: 119; viability (ATP), % of control: 74.4; Call: inactive
Trps1 (transcriptional repressor GATA binding 1) #3 | GFP, % of control: 89; viability (ATP), % of control: 75.5; Call: inactive
Ccr8 (C-C motif chemokine receptor 8) #1 | GFP, % of control: 69.9; viability (ATP), % of control: 54.8; Call: inactive
Ccr8 (C-C motif chemokine receptor 8) #2 | GFP, % of control: 94.4; viability (ATP), % of control: 72.3; Call: inactive
Ccr8 (C-C motif chemokine receptor 8) #3 | GFP, % of control: 165; viability (ATP), % of control: 74.5; Call: active
Dok4 (docking protein 4) #1 | GFP, % of control: 67.3; viability (ATP), % of control: 78.5; Call: inactive
Dok4 (docking protein 4) #2 | GFP, % of control: 71.7; viability (ATP), % of control: 64.8; Call: inactive
Dok4 (docking protein 4) #3 | GFP, % of control: 90.4; viability (ATP), % of control: 65.8; Call: inactive
Cables2 (CDK5 and Abl enzyme substrate 2) #1 | GFP, % of control: 92.6; viability (ATP), % of control: 80.4; Call: inactive
Cables2 (CDK5 and Abl enzyme substrate 2) #2 | GFP, % of control: 108; viability (ATP), % of control: 95.5; Call: inactive
Cables2 (CDK5 and Abl enzyme substrate 2) #3 | GFP, % of control: 82; viability (ATP), % of control: 96.6; Call: inactive
Cdc50a (cell division cycle 50 P4-ATPase accessory subunit A) #1 | GFP, % of control: 81; viability (ATP), % of control: 81.3; Call: inactive
Cdc50a (cell division cycle 50 P4-ATPase accessory subunit A) #2 | GFP, % of control: 66.2; viability (ATP), % of control: 92.1; Call: inactive
Cdc50a (cell division cycle 50 P4-ATPase accessory subunit A) #3 | GFP, % of control: 130; viability (ATP), % of control: 109; Call: active
Oprm1 (opioid receptor, mu 1) #1 | GFP, % of control: 111; viability (ATP), % of control: 74.8; Call: inactive
Oprm1 (opioid receptor, mu 1) #2 | GFP, % of control: 94.4; viability (ATP), % of control: 63.2; Call: inactive
Oprm1 (opioid receptor, mu 1) #3 | GFP, % of control: 18.4; viability (ATP), % of control: 20; Call: inactive
Entr1 (endosome associated trafficking regulator 1) #1 | GFP, % of control: 79.7; viability (ATP), % of control: 95.5; Call: inactive
Entr1 (endosome associated trafficking regulator 1) #2 | GFP, % of control: 51; viability (ATP), % of control: 52.5; Call: inactive
Entr1 (endosome associated trafficking regulator 1) #3 | GFP, % of control: 92; viability (ATP), % of control: 103; Call: inactive
Sirt1 (sirtuin 1) #1 | GFP, % of control: 80.5; viability (ATP), % of control: 85.1; Call: inactive
Sirt1 (sirtuin 1) #2 | GFP, % of control: 55.2; viability (ATP), % of control: 75.9; Call: inactive
